PubChem BioAssay AID1159584 – Peter MacCallum Cancer Centre | 2016

- Assay: 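Genes that CDH1-null MCF10A cells selectively depend on to survive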 (primary screen)
- System: human MCF10A breast epithelial cells, parental and CDH1-null
- Reagents: siRNA against human genes
- Measurement: 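ATP luminescence (CellTiter-Glo) viability per line relative to mean mock wells over all plates, and the ratio of CDH1-null to parental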
- Reading the numbers: CDH1-null / parental viability ratio: higher = CDH1-null cells survive relatively better than parental; CDH1-null viability vs mock: higher = more viable CDH1-null cells
In all, the deposit lists about 18,000 reagents; shown is a part drawn at random. Further read-outs or replicates are left out here. The record does not give: the amount of reagent, the time to read-out.

RNF215 (ring finger protein 215) showed CDH1-null / parental viability ratio 0.93; CDH1-null viability vs mock (fraction of mock) = 0.64. Against AOC2 (amine oxidase copper containing 2), the values are CDH1-null / parental viability ratio 1.31; CDH1-null viability vs mock (fraction of mock) = 0.71. For ARHGAP31 (Rho GTPase activating protein 31), the entry reads CDH1-null / parental viability ratio 0.86; CDH1-null viability vs mock (fraction of mock) = 0.67. After knock-down of BBOF1 (basal body orientation factor 1), the record shows CDH1-null / parental viability ratio 1.01; CDH1-null viability vs mock (fraction of mock) = 0.74. Silencing of REN (renin) resulted in: CDH1-null / parental viability ratio 1.29; CDH1-null viability vs mock (fraction of mock) = 0.85. Depletion of DDX11 (DEAD/H-box helicase 11) came out at: CDH1-null / parental viability ratio 0.89; CDH1-null viability vs mock (fraction of mock) = 0.85.

After knock-down of PEPD (peptidase D), the screen gave CDH1-null / parental viability ratio 1.26; CDH1-null viability vs mock (fraction of mock) = 0.53. DSG1 (desmoglein 1) showed CDH1-null / parental viability ratio 1.02; CDH1-null viability vs mock (fraction of mock) = 0.86. FUT1 (fucosyltransferase 1 (H blood group)) showed CDH1-null / parental viability ratio 1.01; CDH1-null viability vs mock (fraction of mock) = 1.02. For TMEM126A (transmembrane protein 126A), the values are CDH1-null / parental viability ratio 1.04; CDH1-null viability vs mock (fraction of mock) = 1.04. Depletion of RP1 (RP1 axonemal microtubule associated) came out at: CDH1-null / parental viability ratio 0.92; CDH1-null viability vs mock (fraction of mock) = 0.46. Silencing of NMRAL1 (NmrA like redox sensor 1) came out at: CDH1-null / parental viability ratio 0.86; CDH1-null viability vs mock (fraction of mock) = 0.36.

PFDN2 (prefoldin subunit 2) scored CDH1-null / parental viability ratio 0.94; CDH1-null viability vs mock (fraction of mock) = 0.62. With knock-down of TIMM8B (translocase of inner mitochondrial membrane 8 homolog B) the results were CDH1-null / parental viability ratio 1.08; CDH1-null viability vs mock (fraction of mock) = 0.54. With knock-down of DEFB132 (defensin beta 132), the screen gave CDH1-null / parental viability ratio 0.85; CDH1-null viability vs mock (fraction of mock) = 0.47. Depletion of RHOH (ras homolog family member H) came out at: CDH1-null / parental viability ratio 0.78; CDH1-null viability vs mock (fraction of mock) = 0.68. Against ACSM5 (acyl-CoA synthetase medium chain family member 5), the entry reads CDH1-null / parental viability ratio 0.96; CDH1-null viability vs mock (fraction of mock) = 0.73. Silencing of SMNDC1 (survival motor neuron domain containing 1) gave: CDH1-null / parental viability ratio 1.06; CDH1-null viability vs mock (fraction of mock) = 0.87.

With knock-down of OAS2 (2'-5'-oligoadenylate synthetase 2), the screen gave CDH1-null / parental viability ratio 0.88; CDH1-null viability vs mock (fraction of mock) = 0.72. Depletion of SLC5A11 resulted in: CDH1-null / parental viability ratio 1.21; CDH1-null viability vs mock (fraction of mock) = 0.99. ANGEL2 (angel homolog 2) showed CDH1-null / parental viability ratio 1.08; CDH1-null viability vs mock (fraction of mock) = 0.82. SMARCB1 (SWI/SNF related BAF chromatin remodeling complex subunit B1) gave CDH1-null / parental viability ratio 1.04; CDH1-null viability vs mock (fraction of mock) = 0.58. For TM2D1 (TM2 domain containing 1), the entry reads CDH1-null / parental viability ratio 0.89; CDH1-null viability vs mock (fraction of mock) = 0.88. After knock-down of HS3ST3A1 (heparan sulfate-glucosamine 3-sulfotransferase 3A1), the record shows CDH1-null / parental viability ratio 0.96; CDH1-null viability vs mock (fraction of mock) = 0.54.

SLC15A4 showed CDH1-null / parental viability ratio 1.15; CDH1-null viability vs mock (fraction of mock) = 1.06. Depletion of RPS6KA1 (ribosomal protein S6 kinase A1) came out at: CDH1-null / parental viability ratio 1.09; CDH1-null viability vs mock (fraction of mock) = 0.86. DBX2 (developing brain homeobox 2) showed CDH1-null / parental viability ratio 1; CDH1-null viability vs mock (fraction of mock) = 0.62. For SPTB (spectrin beta, erythrocytic) the deposit lists CDH1-null / parental viability ratio 1.08; CDH1-null viability vs mock (fraction of mock) = 0.65. Silencing of ABCA6 (ATP binding cassette subfamily A member 6) gave: CDH1-null / parental viability ratio 1.02; CDH1-null viability vs mock (fraction of mock) = 0.9. FAM131B (family with sequence similarity 131 member B) showed CDH1-null / parental viability ratio 0.83; CDH1-null viability vs mock (fraction of mock) = 0.7.

After knock-down of GALNT4 (polypeptide N-acetylgalactosaminyltransferase 4), the record shows CDH1-null / parental viability ratio 0.95; CDH1-null viability vs mock (fraction of mock) = 0.88. Against ADGRG6 (adhesion G protein-coupled receptor G6), the values are CDH1-null / parental viability ratio 0.86; CDH1-null viability vs mock (fraction of mock) = 0.96. With knock-down of STAG3L2 (STAG3 cohesin complex component like 2 (pseudogene)) the results were CDH1-null / parental viability ratio 1.08; CDH1-null viability vs mock (fraction of mock) = 0.57. Depletion of AP5Z1 (adaptor related protein complex 5 subunit zeta 1) resulted in: CDH1-null / parental viability ratio 1.21; CDH1-null viability vs mock (fraction of mock) = 0.92. DEGS2 (delta 4-desaturase, sphingolipid 2) showed CDH1-null / parental viability ratio 1.35; CDH1-null viability vs mock (fraction of mock) = 1.

3 successive records already listed:
STAG3L2 (STAG3 cohesin complex component like 2 (pseudogene)) | CDH1-null / parental viability ratio: 1.08; CDH1-null viability vs mock (fraction of mock): 0.57
AP5Z1 (adaptor related protein complex 5 subunit zeta 1) | CDH1-null / parental viability ratio: 1.21; CDH1-null viability vs mock (fraction of mock): 0.92
DEGS2 (delta 4-desaturase, sphingolipid 2) | CDH1-null / parental viability ratio: 1.35; CDH1-null viability vs mock (fraction of mock): 1
